Measurements reported in PubChem BioAssay AID1259425 (University of Nebraska Medical Center, 2018)
The deposit covers about 14,000 reagents; shown is a part drawn at random. Not given: the time to read-out.

Screen: 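Compare each knockdown with KSR1 silencing using changes in marker transcripts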 (primary screen)
Cell system: HCT116 human colon cancer cells
Reagent: siRNA pool against human genes, 50 nM siRNA
Measured: 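mRNA of six signature genes measured together by branched-DNA assay after 50 nM siRNA pool, blank removed, divided by geometric mean of two housekeeping genes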
Scale: BNIP3L mRNA: higher = more BNIP3L transcript after knockdown; NDRG1 mRNA: higher = more NDRG1 transcript after knockdown; BNIP3 mRNA: higher = more BNIP3 transcript after knockdown; ALDOC mRNA: higher = more ALDOC transcript after knockdown; ACSL5 mRNA: higher = more ACSL5 transcript after knockdown

The first 2 records, to show the layout:
| gene symbol | BNIP3L mRNA, set 1 | NDRG1 mRNA, set 1 | BNIP3 mRNA, set 1 | ALDOC mRNA, set 1 | ACSL5 mRNA, set 1 |
| --- | --- | --- | --- | --- | --- |
| CARF | 0.103 | 0.078 | 0.3 | 0.024 | 0.229 |
| CYB561 | 0.0947 | 0.234 | 0.224 | 0.0316 | 0.166 |

Main list, from the start:
| gene symbol | BNIP3L mRNA, set 1 | NDRG1 mRNA, set 1 | BNIP3 mRNA, set 1 | ALDOC mRNA, set 1 | ACSL5 mRNA, set 1 |
| --- | --- | --- | --- | --- | --- |
| CARF | 0.103 | 0.078 | 0.3 | 0.024 | 0.229 |
| CYB561 | 0.0947 | 0.234 | 0.224 | 0.0316 | 0.166 |
| ELOVL7 | 0.102 | 0.15 | 0.25 | 0.039 | 0.222 |
| PMS2 | 0.046 | 0.12 | 0.399 | 0.0116 | 0.172 |
| CTSF | 0.285 | 0.138 | 0.238 | 0.0209 | 0.133 |
| SLC25A2 | 0.194 | 0.251 | 0.327 | 0.0651 | 0.43 |
| OR5L2 | 0.182 | 0.603 | 0.678 | 0.059 | 0.618 |
| ATP1A3 | 0.0878 | 0.0728 | 0.164 | 0.0289 | 0.0865 |
| NGEF | 0.123 | 0.39 | 0.394 | 0.0288 | 0.193 |
| CLP1 | 0.175 | 0.261 | 0.259 | 0.0167 | 0.196 |
| GRWD1 | 0.243 | 0.177 | 0.185 | 0.0609 | 0.304 |
| DAZ1 | 0.135 | 0.113 | 0.304 | 0.0171 | 0.3 |
| TUBA3C | 0.219 | 0.238 | 0.638 | 0.114 | 0.299 |
| GPR61 | 0.199 | 0.125 | 0.211 | 0.0718 | 0.129 |
| DDIT3 | 0.0696 | 0.0637 | 0.204 | -0.00199 | 0.206 |
| ENTREP1 | 0.178 | 0.508 | 0.303 | 0.0259 | 0.355 |
| YWHAH | 0.0763 | 0.0861 | 0.354 | 0.0131 | 0.194 |
| ETS2 | 0.11 | 0.264 | 0.247 | 0.0147 | 0.215 |
| KCND3 | 0.172 | 0.368 | 0.687 | 0.0314 | 0.308 |
| RBM12 | 0.117 | 0.161 | 0.326 | 0.0117 | 0.305 |
| KATNA1 | 0.11 | 0.129 | 0.297 | 0.0382 | 0.295 |
| PLPP4 | 0.181 | 0.546 | 0.273 | 0.0199 | 0.17 |
| PPP1R3E | 0.107 | 0.201 | 0.288 | 0.0314 | 0.125 |
| CFTR | 0.049 | 0.106 | 0.204 | 0.0186 | 0.182 |
| MOSPD1 | 0.106 | 0.469 | 0.274 | 0.0388 | 0.238 |
| SOX7 | 0.319 | 0.448 | 0.45 | 0.113 | 0.55 |
| GNG11 | 0.199 | 0.191 | 0.491 | 0.0248 | 0.0779 |
| PNOC | 0.156 | 0.183 | 0.189 | 0.02 | 0.247 |
| EZH1 | 0.32 | 0.182 | 0.78 | 0.067 | 0.137 |
| MBD2 | 0.153 | 0.118 | 0.196 | 0.0145 | 0.122 |
| LOC51212 (retired record) | 0.0751 | 0.196 | 0.479 | 0.00992 | 0.409 |
| PHOX2B | 0.14 | 0.177 | 0.321 | 0.0181 | 0.213 |
| SH3BP2 | 0.111 | 0.362 | 0.311 | 0.0174 | 0.274 |
| POLD3 | 0.085 | 0.402 | 0.189 | 0.0352 | 0.0991 |
| CYP46A1 | 0.0536 | 0.179 | 0.263 | 0.00817 | 0.327 |
| PALB2 | 0.195 | 0.388 | 0.391 | 0.0806 | 0.227 |
| GLT8D1 | 0.149 | 0.184 | 0.285 | 0.0452 | 0.249 |
| ITGB3BP | 0.0718 | 0.106 | 0.274 | 0.0268 | 0.093 |
| LRP1 | 0.0245 | 0.278 | 0.224 | 0.00837 | 0.214 |
| PIWIL1 | 0.272 | 0.541 | 0.391 | 0.0371 | 0.146 |
| GOLPH3 | 0.222 | 0.303 | 0.249 | 0.0408 | 0.472 |
| KDM2B | 0.155 | 0.24 | 0.368 | 0.035 | 0.402 |
| GJB6 | 0.0997 | 0.112 | 0.336 | 0.0656 | 0.117 |
| NDUFS1 | 0.115 | 0.158 | 0.335 | 0.0308 | 0.225 |
| MCF2 | 0.0487 | 0.179 | 0.223 | 0.017 | 0.146 |
| DMXL2 | 0.0547 | 0.141 | 0.332 | 0.0104 | 0.0667 |
| SUCLG2 | 0.279 | 0.286 | 0.343 | 0.019 | 0.143 |
| ABCB10 | 0.147 | 0.349 | 0.309 | 0.0457 | 0.157 |
| STX6 | 0.212 | 0.398 | 0.424 | 0.0364 | 0.532 |
| ABCC5 | 0.0452 | 0.131 | 0.321 | 0.031 | 0.147 |
